Results taken from publication PMC11519374.
These are yes or no findings as the source states them, for the method shown. In cells and extracts the contact can be indirect. Some binding calls cover weakened binding; strength is not graded here. For some of these results: Tags and fused reporters may be left off the sequences shown.

Amino acid sequences for entries named in this document (tags omitted).
UniProt Q6IPX1: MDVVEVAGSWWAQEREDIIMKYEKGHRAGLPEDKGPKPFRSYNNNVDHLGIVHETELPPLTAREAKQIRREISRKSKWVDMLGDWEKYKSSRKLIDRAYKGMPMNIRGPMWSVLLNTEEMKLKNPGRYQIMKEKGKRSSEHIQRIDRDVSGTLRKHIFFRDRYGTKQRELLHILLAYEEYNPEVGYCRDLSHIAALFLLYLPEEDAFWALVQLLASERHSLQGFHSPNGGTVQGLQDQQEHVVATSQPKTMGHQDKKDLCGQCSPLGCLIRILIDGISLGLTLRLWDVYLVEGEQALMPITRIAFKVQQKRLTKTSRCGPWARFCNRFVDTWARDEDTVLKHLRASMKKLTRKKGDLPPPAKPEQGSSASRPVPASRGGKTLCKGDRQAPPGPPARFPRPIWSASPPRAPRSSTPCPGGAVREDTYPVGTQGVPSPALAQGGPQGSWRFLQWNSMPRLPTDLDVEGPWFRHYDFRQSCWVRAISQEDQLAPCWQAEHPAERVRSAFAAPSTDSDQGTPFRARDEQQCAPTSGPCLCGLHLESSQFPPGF
UniProt P63172: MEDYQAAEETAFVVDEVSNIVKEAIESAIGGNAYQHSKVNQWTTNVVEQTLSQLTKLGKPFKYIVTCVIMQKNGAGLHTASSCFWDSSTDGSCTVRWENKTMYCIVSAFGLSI

T1: GEF-H1 (human (endogenous in U2OS and HEK293A)) (UniProt Q92974)
T1 sequence: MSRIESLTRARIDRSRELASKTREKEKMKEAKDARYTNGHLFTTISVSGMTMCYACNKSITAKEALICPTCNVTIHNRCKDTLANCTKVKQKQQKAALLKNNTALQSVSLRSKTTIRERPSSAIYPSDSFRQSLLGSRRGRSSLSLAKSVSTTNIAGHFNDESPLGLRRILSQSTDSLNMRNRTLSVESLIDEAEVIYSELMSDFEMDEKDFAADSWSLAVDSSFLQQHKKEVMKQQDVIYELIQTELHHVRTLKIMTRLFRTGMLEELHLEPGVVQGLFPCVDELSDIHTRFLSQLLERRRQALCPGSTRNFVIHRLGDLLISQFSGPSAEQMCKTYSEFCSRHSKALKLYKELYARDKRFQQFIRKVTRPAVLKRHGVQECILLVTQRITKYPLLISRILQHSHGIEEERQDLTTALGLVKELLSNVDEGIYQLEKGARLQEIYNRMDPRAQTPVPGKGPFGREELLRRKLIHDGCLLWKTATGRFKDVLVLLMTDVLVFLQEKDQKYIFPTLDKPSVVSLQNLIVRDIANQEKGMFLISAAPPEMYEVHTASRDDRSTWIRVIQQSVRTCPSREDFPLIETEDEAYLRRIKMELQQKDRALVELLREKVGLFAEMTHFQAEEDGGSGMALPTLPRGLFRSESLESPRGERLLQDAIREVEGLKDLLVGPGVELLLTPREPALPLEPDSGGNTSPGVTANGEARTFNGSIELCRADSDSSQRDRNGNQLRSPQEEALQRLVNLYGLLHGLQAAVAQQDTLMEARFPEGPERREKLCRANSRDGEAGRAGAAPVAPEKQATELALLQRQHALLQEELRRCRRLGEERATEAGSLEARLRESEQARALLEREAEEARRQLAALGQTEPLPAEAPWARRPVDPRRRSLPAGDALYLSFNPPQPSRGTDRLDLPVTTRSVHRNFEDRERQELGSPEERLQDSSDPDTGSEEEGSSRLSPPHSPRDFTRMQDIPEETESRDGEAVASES


Tests used:
[1] = target: T1, GEF-H1 (human (endogenous in U2OS and HEK293A)); test: co-IP; immunoprecipitation with GEF-H1 antibody from lysates of cells with or without induction of TBC1D3C or TBC1D3C-RD2A; immunoblot for Tctex, DIC and 14-3-3
[2] = target: FLAG-TBC1D3C full-length (human) (UniProt Q6IPX1); test: co-IP; HEK293T cells co-transfected with FLAG-TBC1D3C forms and Myc-GEF-H1 forms; immunoprecipitation with anti-FLAG M2 agarose beads, immunoblot with FLAG and Myc antibodies

Molecule	binding [1]	binding [2]
Myc-GEF-H1 DH (domain or fragment, UniProt Q92974 235-432) KQQDVIYELIQTELHHVRTLKIMTRLFRTGMLEELHLEPGVVQGLFPCVDELSDIHTRFLSQLLERRRQALCPGSTRNFVIHRLGDLLISQFSGPSAEQMCKTYSEFCSRHSKALKLYKELYARDKRFQQFIRKVTRPAVLKRHGVQECILLVTQRITKYPLLISRILQHSHGIEEERQDLTTALGLVKELLSNVDEG		binds weakly
Myc-GEF-H1 PH (domain or fragment, UniProt Q92974 472-571) KLIHDGCLLWKTATGRFKDVLVLLMTDVLVFLQEKDQKYIFPTLDKPSVVSLQNLIVRDIANQEKGMFLISAAPPEMYEVHTASRDDRSTWIRVIQQSVR		binds weakly

Further lines, results first:

binding [1]	binding [2]	Molecule
binds		TBC1D3C (TetOn, Dox-induced) (from UniProt Q6IPX1 1-549)
binds		Tctex-1 (from UniProt P63172 1-113)
